In the supplement of paper PMC12823440, “Inhibitors supercharge kinase turnover through native proteolytic circuits” (Nature, 2025):
Structures can show the parent of a compound that is named as a salt. Some of the results follow. The calls rarely recur for the same compound in another form.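 Kinases, fused to nanoluciferase, were expressed in K562 cells; luminescence was measured every 4 h from 2 to 18 h as percent of control (DMSO = 100%, positive control = 0%). A time point is decreased if signal falls significantly (2 sigma). Hits were called by the authors by a rule that is not shown; the count of time points alone does not decide it.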

Protein sequences, listed by entry. Tags and fused reporters are not part of them.
UniProt P29317, whole entry: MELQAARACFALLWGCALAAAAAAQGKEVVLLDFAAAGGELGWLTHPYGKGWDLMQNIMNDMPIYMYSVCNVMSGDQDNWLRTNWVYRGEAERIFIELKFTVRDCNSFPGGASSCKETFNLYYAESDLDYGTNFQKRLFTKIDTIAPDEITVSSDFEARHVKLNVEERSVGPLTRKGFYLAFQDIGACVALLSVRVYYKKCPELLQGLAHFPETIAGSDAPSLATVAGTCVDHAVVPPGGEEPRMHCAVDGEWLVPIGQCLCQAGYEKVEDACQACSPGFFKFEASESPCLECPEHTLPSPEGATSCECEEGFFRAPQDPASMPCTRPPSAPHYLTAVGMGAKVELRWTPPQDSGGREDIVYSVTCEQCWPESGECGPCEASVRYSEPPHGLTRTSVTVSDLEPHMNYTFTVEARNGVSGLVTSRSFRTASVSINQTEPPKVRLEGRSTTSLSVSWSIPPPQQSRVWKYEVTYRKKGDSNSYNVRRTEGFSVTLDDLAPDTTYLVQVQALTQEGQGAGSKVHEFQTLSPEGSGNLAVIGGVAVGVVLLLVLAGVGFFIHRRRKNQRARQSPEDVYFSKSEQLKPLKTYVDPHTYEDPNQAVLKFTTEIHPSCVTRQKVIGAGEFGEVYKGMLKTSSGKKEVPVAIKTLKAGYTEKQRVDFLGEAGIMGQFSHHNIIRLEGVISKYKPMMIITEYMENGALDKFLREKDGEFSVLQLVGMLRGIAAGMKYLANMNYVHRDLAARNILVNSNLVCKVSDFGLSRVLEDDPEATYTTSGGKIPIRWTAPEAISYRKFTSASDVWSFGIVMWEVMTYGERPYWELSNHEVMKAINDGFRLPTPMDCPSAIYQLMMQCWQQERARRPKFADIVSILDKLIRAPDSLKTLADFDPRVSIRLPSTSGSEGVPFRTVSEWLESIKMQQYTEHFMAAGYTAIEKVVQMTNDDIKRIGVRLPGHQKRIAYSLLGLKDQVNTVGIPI
UniProt P21860, whole entry: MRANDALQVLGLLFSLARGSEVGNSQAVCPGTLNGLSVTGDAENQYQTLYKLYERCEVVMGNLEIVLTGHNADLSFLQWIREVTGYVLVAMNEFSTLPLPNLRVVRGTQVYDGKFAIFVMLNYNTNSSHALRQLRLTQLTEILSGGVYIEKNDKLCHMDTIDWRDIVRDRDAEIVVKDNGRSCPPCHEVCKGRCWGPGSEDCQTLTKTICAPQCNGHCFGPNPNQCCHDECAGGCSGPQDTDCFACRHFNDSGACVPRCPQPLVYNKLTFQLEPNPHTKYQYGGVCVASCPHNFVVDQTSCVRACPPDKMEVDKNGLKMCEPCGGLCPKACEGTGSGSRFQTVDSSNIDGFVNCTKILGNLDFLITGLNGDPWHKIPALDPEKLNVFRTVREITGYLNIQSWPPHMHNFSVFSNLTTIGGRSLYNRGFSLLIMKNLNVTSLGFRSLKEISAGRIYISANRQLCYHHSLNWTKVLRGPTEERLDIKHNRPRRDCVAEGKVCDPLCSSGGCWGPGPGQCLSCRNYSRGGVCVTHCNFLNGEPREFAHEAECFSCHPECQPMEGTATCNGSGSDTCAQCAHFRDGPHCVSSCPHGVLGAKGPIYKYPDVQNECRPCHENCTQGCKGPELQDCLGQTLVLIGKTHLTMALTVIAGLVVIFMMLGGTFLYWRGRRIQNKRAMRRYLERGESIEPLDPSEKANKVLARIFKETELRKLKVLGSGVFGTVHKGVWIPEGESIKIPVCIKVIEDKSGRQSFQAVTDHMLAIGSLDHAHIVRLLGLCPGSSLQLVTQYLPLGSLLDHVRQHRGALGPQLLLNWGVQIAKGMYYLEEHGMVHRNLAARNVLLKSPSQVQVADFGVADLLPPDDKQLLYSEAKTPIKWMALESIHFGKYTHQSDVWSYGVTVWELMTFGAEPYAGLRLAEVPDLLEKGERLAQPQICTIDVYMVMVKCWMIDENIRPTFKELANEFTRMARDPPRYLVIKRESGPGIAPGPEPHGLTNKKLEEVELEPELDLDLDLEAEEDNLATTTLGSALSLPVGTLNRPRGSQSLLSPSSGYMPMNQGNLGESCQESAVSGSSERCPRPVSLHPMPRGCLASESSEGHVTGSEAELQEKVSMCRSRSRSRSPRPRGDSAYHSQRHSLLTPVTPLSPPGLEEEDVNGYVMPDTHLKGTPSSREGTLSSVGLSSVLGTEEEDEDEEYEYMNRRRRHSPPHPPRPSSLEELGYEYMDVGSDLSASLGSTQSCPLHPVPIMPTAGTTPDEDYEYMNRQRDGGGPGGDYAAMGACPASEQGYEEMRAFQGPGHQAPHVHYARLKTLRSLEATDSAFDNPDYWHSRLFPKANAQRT
UniProt Q15303, whole entry R711C: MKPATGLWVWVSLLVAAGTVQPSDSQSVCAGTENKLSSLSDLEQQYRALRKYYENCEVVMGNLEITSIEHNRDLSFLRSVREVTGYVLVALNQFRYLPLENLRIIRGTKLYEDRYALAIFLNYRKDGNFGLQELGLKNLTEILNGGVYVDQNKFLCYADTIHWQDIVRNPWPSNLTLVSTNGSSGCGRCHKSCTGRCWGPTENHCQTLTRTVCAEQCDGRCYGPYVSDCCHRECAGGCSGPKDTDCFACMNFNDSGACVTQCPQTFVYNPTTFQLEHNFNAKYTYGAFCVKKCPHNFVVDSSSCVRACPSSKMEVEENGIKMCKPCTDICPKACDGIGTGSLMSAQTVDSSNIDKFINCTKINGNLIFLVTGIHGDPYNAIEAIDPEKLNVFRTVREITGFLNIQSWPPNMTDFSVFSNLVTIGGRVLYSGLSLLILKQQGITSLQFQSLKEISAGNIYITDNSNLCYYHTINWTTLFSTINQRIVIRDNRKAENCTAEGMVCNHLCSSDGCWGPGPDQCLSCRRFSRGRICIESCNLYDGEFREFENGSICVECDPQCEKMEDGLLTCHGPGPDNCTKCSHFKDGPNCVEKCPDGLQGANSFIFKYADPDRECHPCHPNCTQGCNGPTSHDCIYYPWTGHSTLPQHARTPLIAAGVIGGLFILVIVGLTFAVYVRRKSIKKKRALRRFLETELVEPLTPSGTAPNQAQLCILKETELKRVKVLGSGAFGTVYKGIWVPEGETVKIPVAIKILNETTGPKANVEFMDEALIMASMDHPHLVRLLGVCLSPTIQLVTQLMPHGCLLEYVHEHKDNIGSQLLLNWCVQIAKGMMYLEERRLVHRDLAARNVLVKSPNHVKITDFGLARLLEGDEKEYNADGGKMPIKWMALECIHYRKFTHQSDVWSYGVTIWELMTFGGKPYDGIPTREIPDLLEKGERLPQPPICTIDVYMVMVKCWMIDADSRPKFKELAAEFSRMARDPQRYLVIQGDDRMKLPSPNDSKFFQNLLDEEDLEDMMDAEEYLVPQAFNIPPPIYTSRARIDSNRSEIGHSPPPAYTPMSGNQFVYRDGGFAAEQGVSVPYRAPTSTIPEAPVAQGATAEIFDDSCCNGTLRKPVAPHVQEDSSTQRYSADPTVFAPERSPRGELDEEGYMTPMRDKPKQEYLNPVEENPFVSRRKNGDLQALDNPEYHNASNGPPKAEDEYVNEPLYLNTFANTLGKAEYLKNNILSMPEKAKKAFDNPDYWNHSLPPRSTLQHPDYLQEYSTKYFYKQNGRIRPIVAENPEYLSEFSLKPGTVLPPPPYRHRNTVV

How the values were obtained:
Test in all cases: kinase-Nluc reporter destabilization hit call (1 = scored as downregulated) (binary); higher = compound decreases kinase abundance
Conditions in all cases: K562, 2-18 h
EGFR = EGFR (UniProt P00533)
EGFR_G719S = EGFR_G719S (UniProt P00533)
EGFR_G719S_T790M = EGFR_G719S_T790M (UniProt P00533)
EGFR_L718V = EGFR_L718V (UniProt P00533)
EGFR_L858R = EGFR_L858R (UniProt P00533)
EGFR_L861Q = EGFR_L861Q (UniProt P00533)
EGFR_T790M = EGFR_T790M (UniProt P00533)
EPHA2 = EPHA2 (UniProt P29317)
ERBB3 = ERBB3 (UniProt P21860)
[1] = target: ERBB4_R711C (clone: ERBB4_mut) (UniProt Q15303)

Measured: kinase-Nluc reporter destabilization hit call

C#Cc1cccc(Nc2ncnc3cc4c(cc23)OCCOCCOCCO4)c1 [Icotinib]
inactive: EGFR; 10 µM 0 | EGFR_G719S; 10 µM 0 | EGFR_G719S_T790M; 10 µM 0 | EGFR_L718V; 10 µM 0 | EGFR_L858R; 10 µM 0 | EGFR_L861Q; 10 µM 0 | EGFR_T790M; 10 µM 0 | EPHA2; 10 µM 0 | ERBB3; 10 µM 0 | [1]; 10 µM 0

CC(C)NC[C@@H](C(=O)N1CCN(c2ncnc3c2[C@H](C)C[C@H]3O)CC1)c1ccc(Cl)cc1 [Ipatasertib]
inactive: EGFR; 10 µM 0 | EGFR_G719S; 10 µM 0 | EGFR_G719S_T790M; 10 µM 0 | EGFR_L718V; 10 µM 0 | EGFR_L858R; 10 µM 0 | EGFR_L861Q; 10 µM 0 | EGFR_T790M; 10 µM 0 | EPHA2; 10 µM 0 | ERBB3; 10 µM 0 | [1]; 10 µM 0

CN(C)C(=O)c1cc2cnc(Nc3ccc(N4CCNCC4)cn3)nc2n1C1CCCC1 [Ribociclib hydrochloride]
inactive: EGFR; 2.5 µM 0 | EGFR_G719S; 2.5 µM 0 | EGFR_G719S_T790M; 2.5 µM 0 | EGFR_L718V; 2.5 µM 0 | EGFR_L858R; 2.5 µM 0 | EGFR_L861Q; 2.5 µM 0 | EGFR_T790M; 2.5 µM 0 | EPHA2; 2.5 µM 0 | ERBB3; 2.5 µM 0 | [1]; 2.5 µM 0

CN(C)C(=O)c1cc2cnc(Nc3ccc(N4CCNCC4)cn3)nc2n1C1CCCC1 [Ribociclib succinate]
inactive: EGFR; 10 µM 0 | EGFR_G719S; 10 µM 0 | EGFR_G719S_T790M; 10 µM 0 | EGFR_L718V; 10 µM 0 | EGFR_L858R; 10 µM 0 | EGFR_L861Q; 10 µM 0 | EGFR_T790M; 10 µM 0 | EPHA2; 10 µM 0 | ERBB3; 10 µM 0 | [1]; 10 µM 0

N#CC[C@H](C1CCCC1)n1cc(-c2ncnc3[nH]ccc23)cn1 [Ruxolitinib (phosphate)]
inactive: EGFR; 10 µM 0 | EGFR_G719S; 10 µM 0 | EGFR_G719S_T790M; 10 µM 0 | EGFR_L718V; 10 µM 0 | EGFR_L858R; 10 µM 0 | EGFR_L861Q; 10 µM 0 | EGFR_T790M; 10 µM 0 | EPHA2; 10 µM 0 | ERBB3; 10 µM 0 | [1]; 10 µM 0

Random excerpt: two records from the list
CN(C)C(=O)c1cc2cnc(Nc3ccc(N4CCNCC4)cn3)nc2n1C1CCCC1 [Ribociclib succinate]
inactive: EGFR; 10 µM 0 | EGFR_G719S; 10 µM 0 | EGFR_G719S_T790M; 10 µM 0 | EGFR_L718V; 10 µM 0 | EGFR_L858R; 10 µM 0 | EGFR_L861Q; 10 µM 0 | EGFR_T790M; 10 µM 0 | EPHA2; 10 µM 0 | ERBB3; 10 µM 0 | [1]; 10 µM 0

CC(C)NC[C@@H](C(=O)N1CCN(c2ncnc3c2[C@H](C)C[C@H]3O)CC1)c1ccc(Cl)cc1 [Ipatasertib]
inactive: EGFR; 10 µM 0 | EGFR_G719S; 10 µM 0 | EGFR_G719S_T790M; 10 µM 0 | EGFR_L718V; 10 µM 0 | EGFR_L858R; 10 µM 0 | EGFR_L861Q; 10 µM 0 | EGFR_T790M; 10 µM 0 | EPHA2; 10 µM 0 | ERBB3; 10 µM 0 | [1]; 10 µM 0

Next records follow.

COc1ncc(F)cc1CNc1ccc(Cc2c[nH]c3ncc(C)cc23)c(F)n1 [PLX5622 (hemifumarate)]
inactive: EGFR; 10 µM 0 | EGFR_G719S; 10 µM 0 | EGFR_G719S_T790M; 10 µM 0 | EGFR_L718V; 10 µM 0 | EGFR_L858R; 10 µM 0 | EGFR_L861Q; 10 µM 0 | EGFR_T790M; 10 µM 0 | EPHA2; 10 µM 0 | ERBB3; 10 µM 0 | [1]; 10 µM 0

COc1cc2c(cc1OC)-c1c(C)c3ccc(OC)c(OC)c3c[n+]1CC2 [Dehydrocorydaline (chloride)]
inactive: EGFR; 10 µM 0 | EGFR_G719S; 10 µM 0 | EGFR_G719S_T790M; 10 µM 0 | EGFR_L718V; 10 µM 0 | EGFR_L858R; 10 µM 0 | EGFR_L861Q; 10 µM 0 | EGFR_T790M; 10 µM 0 | EPHA2; 10 µM 0 | ERBB3; 10 µM 0 | [1]; 10 µM 0

COc1cc2c(Oc3ccc4[nH]c(C)cc4c3F)ncnc2cc1OCCCN1CCCC1 [Cediranib]
inactive: EGFR; 2.5 µM 0 | EGFR_G719S; 2.5 µM 0 | EGFR_G719S_T790M; 2.5 µM 0 | EGFR_L718V; 2.5 µM 0 | EGFR_L858R; 2.5 µM 0 | EGFR_L861Q; 2.5 µM 0 | EGFR_T790M; 2.5 µM 0 | EPHA2; 2.5 µM 0 | ERBB3; 2.5 µM 0 | [1]; 2.5 µM 0

O=C(c1nn(-c2ccc(CN3CCOCC3)cc2)c2c1CS(=O)(=O)c1c(F)cccc1-2)N1CCOCC1
inactive: EGFR; 10 µM 0 | EGFR_G719S; 10 µM 0 | EGFR_G719S_T790M; 10 µM 0 | EGFR_L718V; 10 µM 0 | EGFR_L858R; 10 µM 0 | EGFR_L861Q; 10 µM 0 | EGFR_T790M; 10 µM 0 | EPHA2; 10 µM 0 | ERBB3; 10 µM 0 | [1]; 10 µM 0

CN(C)C/C=C/C(=O)Nc1cc2c(Nc3ccc(F)c(Cl)c3)ncnc2cc1O[C@H]1CCOC1 [Afatinib]
inactive: EPHA2; 10 µM 0 | ERBB3; 10 µM 0 | [1]; 10 µM 0

C=CC(=O)Nc1cc2c(Nc3ccc(F)c(Cl)c3)ncnc2cc1C#CC(C)(C)N1CCN(C)CC1 [AV-412 (free base)]
inactive: EGFR; 2.5 µM 0 | EGFR_G719S; 2.5 µM 0 | EGFR_G719S_T790M; 2.5 µM 0 | EGFR_L718V; 2.5 µM 0 | EGFR_L858R; 2.5 µM 0 | EGFR_L861Q; 2.5 µM 0 | EGFR_T790M; 2.5 µM 0 | EPHA2; 2.5 µM 0 | ERBB3; 2.5 µM 0 | [1]; 2.5 µM 0

C#Cc1cccc(Nc2ncnc3cc(OCCOC)c(OCCOC)cc23)c1 [Erlotinib]
inactive: EPHA2; 10 µM 0 | ERBB3; 10 µM 0 | [1]; 10 µM 0

CNC(=O)c1ccc(Nc2ncc(C(F)(F)F)c(NCc3nccnc3N(C)S(C)(=O)=O)n2)cc1 [Defactinib]
inactive: EGFR; 10 µM 0 | EGFR_G719S; 10 µM 0 | EGFR_G719S_T790M; 10 µM 0 | EGFR_L718V; 10 µM 0 | EGFR_L858R; 10 µM 0 | EGFR_L861Q; 10 µM 0 | EGFR_T790M; 10 µM 0 | EPHA2; 10 µM 0 | ERBB3; 10 µM 0 | [1]; 10 µM 0

Cc1[nH]c(/C=C2\C(=O)Nc3ccc(F)cc32)c(C)c1C(=O)NCCN1CCCC1 [Toceranib]
inactive: EGFR; 2 µM 0 | EGFR_G719S; 2 µM 0 | EGFR_G719S_T790M; 2 µM 0 | EGFR_L718V; 2 µM 0 | EGFR_L858R; 2 µM 0 | EGFR_L861Q; 2 µM 0 | EGFR_T790M; 2 µM 0 | EPHA2; 2 µM 0 | ERBB3; 2 µM 0 | [1]; 2 µM 0

CNC(=O)c1ccc(Nc2ncc(C(F)(F)F)c(NCc3nccnc3N(C)S(C)(=O)=O)n2)cc1 [Defactinib (hydrochloride)]
inactive: EGFR; 10 µM 0 | EGFR_G719S; 10 µM 0 | EGFR_G719S_T790M; 10 µM 0 | EGFR_L718V; 10 µM 0 | EGFR_L858R; 10 µM 0 | EGFR_L861Q; 10 µM 0 | EGFR_T790M; 10 µM 0 | EPHA2; 10 µM 0 | ERBB3; 10 µM 0 | [1]; 10 µM 0

C#Cc1cccc(Nc2ncnc3cc(OCCOC)c(OCCOC)cc23)c1 [Erlotinib (Hydrochloride)]
inactive: EPHA2; 10 µM 0 | ERBB3; 10 µM 0 | [1]; 10 µM 0

Cc1[nH]c(/C=C2\C(=O)Nc3ccc(F)cc32)c(C)c1C(=O)NCCN1CCCC1 [Toceranib (phosphate)]
inactive: EGFR; 2 µM 0 | EGFR_G719S; 2 µM 0 | EGFR_G719S_T790M; 2 µM 0 | EGFR_L718V; 2 µM 0 | EGFR_L858R; 2 µM 0 | EGFR_L861Q; 2 µM 0 | EGFR_T790M; 2 µM 0 | EPHA2; 2 µM 0 | ERBB3; 2 µM 0 | [1]; 2 µM 0
